The source of these data is US7351797 (dated 2008).

A short description of this data set: general procedure: Boc solid-phase peptide synthesis; -OCH2-Pam, MBHA, or Trt-protected mercaptopropionyl-Leu (TAMPAL) resin; HBTU, in situ neutralization. The conditions noted are these: coupling step.

Regarding “LY-(SAOD)-AGCEYRIDRVRLFVDKLDNIAQVPRVGAA-HHHHHH”, the step yield worked out at 58% yield.
Next, LY-(SAOD)-AGCRANK-NH2: “˜85% yield”; “SAOD-KEKERPEISLPSDFEHIVGFDA-CTGEFTGMPEQWARLLQT”: 70% yield.
